Earlier results, collected in patent publication US20050004102A1, “Monohydroxycarbamazepine for use in the preparation of a medicament for the treatment of affective and attention disorder and neuropathic pain” (priority 2001, published 2005).

Tested on: GABA turnover
Details: known from the literature; cited from earlier work

## CN1C(=O)CN=C(c2ccccc2)c2cc(Cl)ccc21 [diazepam]
  GABA turnover rate: inhibit the GABA turnover rate
